Source: PubChem BioAssay AID2685 (National Center for Advancing Translational Sciences (NCATS), 2010)
This is one part of the list. Further columns of the screen follow, without active or inactive calls. Most of these compounds were active or inconclusive in the main read-out, so they are no random draw. The note in brackets gives the kind of curve behind each potency; many fits are weak.

Assay: qHTS Assay for Lipid Storage Modulators in Drosophila S3 Cells;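 on cell number change: cells counted by Cell Tracker Red CMTPX staining in the red channel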
Settings: BODIPY lipid droplet fluorescence, 18-24 h; for cell number change: measured here: cell count max response, cells fed with added oleic acid
Summary of the method: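 Drosophila S3 cells loaded with oleic acid (400 uM, as added) and compounds at several concentrations; lipid droplets imaged by 488-nm laser-scanning cytometry, 500–530 nm intensity and object ratio to cell channel. Percent activity normalized to 20 uM Triacsin C.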

[1] = measured here: lipid fluorescence (Fed channel) AC50, cells fed with added oleic acid
[2] = measured here: cell number channel AC50, cells fed with added oleic acid

SMILES | AC50 [1] | cell number change | AC50 [2]
O=C(NCC1CCCO1)C12CN(Cc3ccccc3)CC1C(c1cccc([N+](=O)[O-])c1)=NO2 (stereo not given) | 6.51 µM [falling, single point] | – | –
CCOC(=O)COn1c(=O)c[n+]([O-])c2ccccc21 | 0.13 µM [falling, single point] | -6.27% | –
NNC(=O)CNS(=O)(=O)c1ccc([N+](=O)[O-])cc1 | 0.366 µM [rising, single point] | – | –
C=CCn1c(CCNC(=O)c2ccccc2F)nnc1SCC(=O)Nc1ccccc1F | 23.1 µM [rising, partial curve] | 23.2% | –
Cc1ccc(C(=O)Nc2ccccc2C(N)=O)o1 | 2.59 µM [rising, full curve] | -13.2% | 0.0058 µM [falling, full curve, poor fit]
COc1ccc(/C=C/C(=O)N2CCN(c3ccccn3)CC2)c2ccccc12 | – | 15.9% | –
CC(C)C(=O)OCC(=O)Nc1ccc(N=Nc2ccccc2)cc1 | 0.164 µM [rising, full curve, poor fit] | -0.603% | –
COc1ccc(N2CC(C(=O)Nc3ccc(S(=O)(=O)Nc4nccs4)cc3)CC2=O)cc1 (stereo not given) | – | 65.1% | 23.1 µM [rising, single point]
NS(=O)(=O)c1ccc(CCNC(=O)CNC(=O)c2ccccc2Br)cc1 | – | -14.5% | –
N#Cc1ccc(S(=O)(=O)N2CCC(C(=O)N3CCN(Cc4ccc5c(c4)OCO5)CC3)CC2)cc1 | 0.164 µM [falling, full curve, poor fit] | -34.9% | 11.6 µM [falling, partial curve]
COc1cccc(CNC(=O)COc2cc3c(c4oc(=O)cc(C)c24)CCC(C)(C)O3)c1 | 29.1 µM [falling, single point] | – | –
C=CCOc1nc2c(c(=O)n(C)c(=O)n2C)n1Cc1ccccc1 | 29.1 µM [rising, single point] | 23.9% | –
O=C(Cn1cc2c(n1)CCCC2)N1CCOCC1 | 29.1 µM [rising, single point] | 5.45% | –
COc1cc(NS(C)(=O)=O)c(OC)cc1NC(=O)c1cccc(F)c1 | 13 µM [rising, partial curve] | 14.4% | –
CCOC(=O)C1=C(c2ccccc2)ON(C)C1c1ccccc1 (stereo not given) | – | 5.66% | –
Cn1c(CCNC(=O)c2ccco2)nc2cc(NC(=O)c3ccccc3)ccc21 | – | -13% | –
CCOC(CNC(=O)c1ccc2nc(N3CCC(C)CC3)sc2c1)OCC | – | – | 1.64 µM [rising, partial curve, poor fit]
CC(=O)c1cc(C(=O)Nc2ccc(C(=O)O)cc2)oc1C | 29.1 µM [falling, single point] | -35.2% | 0.326 µM [falling, full curve]
COCCN(CCOC)c1nc(-c2ccccc2)nc2ccccc12 | – | 3.86% | –
Cc1ccc(NC2=C(Cl)C(=O)OC2OC(=O)c2ccco2)cc1 (stereo not given) | 0.259 µM [rising, full curve] | 0.297% | –
CCCS(=O)(=O)c1cn2cccc(N)c2c1S(=O)(=O)CCC | 18.4 µM [rising, partial curve, poor fit] | 4.46% | –
CCOC(=O)c1c(CNCCN(CC)CC)n(C)c2cc(Br)c(OC)cc12 | 18.4 µM [rising, partial curve] | -6.59% | –

One compound at a time, as listed above. Values in the order: AC50 [1]	cell number change	AC50 [2]
`Cc1ccc(C(=O)Nc2ccccc2C(N)=O)o1` is entered as 2.59 µM [rising, full curve]	-13.2%	0.0058 µM [falling, full curve, poor fit]
`COc1cccc(CNC(=O)COc2cc3c(c4oc(=O)cc(C)c24)CCC(C)(C)O3)c1` is entered as 29.1 µM [falling, single point]	–	–
`CCCS(=O)(=O)c1cn2cccc(N)c2c1S(=O)(=O)CCC` is entered as 18.4 µM [rising, partial curve, poor fit]	4.46%	–

The list goes on:

SMILES | AC50 [1] | cell number change | AC50 [2]
CC1CN(S(=O)(=O)c2cccc(-c3csc(-c4ccccc4)n3)c2)CC(C)O1 (stereo not given) | 18.4 µM [rising, partial curve] | 18.2% | 1.64 µM [rising, partial curve, poor fit]
COCCNC(=O)c1n[nH]c2ccccc12 | 0.103 µM [falling, full curve, poor fit] | -15.4% | –
Cc1cc(Cl)ccc1NC(=O)CN1C(=O)NC2(CCCC2)C1=O | – | -26.3% | –
CC1OC(OC2C(OC3C(O[C@H]4CC[C@]5(C)C6C=C[C@]78OC[C@@]9(CC[C@@H](C)[C@H](C)C97)[C@H](O)C[C@@]8(C)[C@]6(C)CC[C@H]5C4(C)C)OC(C)C(O)C3O)OC(CO)C(O)C2O)C(O)C(O)C1O (stereo not given in full) | – | -9.18% | –
Cc1nnc2n(Cc3ccccc3)c(=O)c3c4c(sc3n12)CN(Cc1ccccc1)CC4 | – | -0.949% | –
CC(C)N(Cc1ccccc1)C(=S)Nc1cccnc1 | – | 66.2% | –
Cc1nn(-c2ccccc2)c(C)c1NC(=O)COc1ccc(F)cc1Cl | 0.651 µM [falling, full curve, poor fit] | -23.1% | 0.00411 µM [falling, full curve, poor fit]
OCCc1ccc(O)c(-n2nc3ccccc3n2)c1 | – | -1.8% | –
O=C(OCc1nc2ccccc2[n+]([O-])c1C(=O)c1ccccc1)c1cccs1 | 0.00461 µM [rising, full curve, poor fit] | 20.2% | –
COc1ccc(/C=C2\Oc3cc(OCC(=O)N4CC(O)C[C@H]4C(=O)O)ccc3C2=O)c(OC)c1OC (stereo not given in full) | 6.51 µM [rising, single point] | 33% | 2.06 µM [rising, full curve, poor fit]
O=C(CC1SC(=O)N(Cc2ccc(Cl)cc2)C1=O)Nc1nccs1 (stereo not given) | – | 33.1% | 7.31 µM [rising, partial curve, poor fit]
Fc1ccccc1-c1nc(NCCCN2CCOCC2)c2ccccc2n1 | 8.2 µM [rising, partial curve] | -9.02% | –
O=C(CN1C(=O)NC(c2ccccc2)(c2ccccc2)C1=O)NC1CCS(=O)(=O)C1 (stereo not given) | 0.461 µM [rising, full curve, poor fit] | 5.4% | –
O=C(Nc1cc(Cl)ccc1-n1cncn1)c1ccc(Br)o1 | – | -59.4% | –
CSc1nnc([C@@H]2CCCN2C(=O)OC(C)(C)C)o1 | – | 15.2% | 0.164 µM [rising, full curve, poor fit]
O=C(CC1SC(=Nc2cccc3ccccc23)N(Cc2ccccn2)C1=O)Nc1ccccc1Br (stereo not given) | 0.651 µM [rising, single point] | -11.9% | –
CCN1CCN(C(=S)NC(=O)c2cccs2)CC1 | – | 2.86% | –
O=C1CC(c2nc3ccccc3[nH]2)CN1c1ccccc1 (stereo not given) | – | – | 0.58 µM [rising, single point]
CN(C)C(CNC(=O)c1ccc(S(=O)(=O)Nc2ccccc2F)cc1)c1ccccc1 (stereo not given) | – | 40.9% | 11.6 µM [rising, partial curve, poor fit]
NC(=O)c1cnn2c(C(F)(F)F)cc(-c3ccc(F)cc3)nc12 | – | -19.2% | –
COc1ccc(C(=O)NC2CCCc3c2cnn3-c2cccc(C)c2C)o1 (stereo not given) | 2.06 µM [falling, full curve] | -25.1% | 5.8 µM [falling, single point]
O=C(/C=C(\c1ccccc1)n1cncn1)c1ccccc1 | 3.26 µM [rising, single point] | 11.2% | –

SMILES | AC50 [1] | cell number change | AC50 [2]
COc1ccc(NC(=O)COC(=O)Cc2ccc(Br)cc2)cc1 | 29.1 µM [rising, single point] | 36% | 4.61 µM [rising, full curve, poor fit]
O=C(CN1CCOCC1)N1CCN(c2nnc(-c3ccccc3)c3ccccc23)CC1 | 6.51 µM [falling, single point] | – | –
O=C(CCNC(=O)c1ccc(Br)cc1)Nc1nc2ccccc2[nH]1 | – | 39% | 2.59 µM [rising, full curve]
Clc1ccc(Nc2nc(C3CC3)cs2)cc1 | – | -15.9% | –
COCCCN(C(=O)c1ccco1)c1nc(-c2ccc(OC)cc2)cs1 | 20.6 µM [falling, single point] | -33.2% | 16.4 µM [falling, partial curve, poor fit]
Cc1ccc2c(c1)C1CN(C)CCC1N2C(=O)c1ccccc1NS(=O)(=O)c1ccc(F)cc1 (stereo not given) | 4.11 µM [rising, partial curve, poor fit] | 1.41% | –
CCOc1nc(C)ccc1-c1noc(-c2ccccc2OC)n1 | 6.51 µM [falling, single point] | -11.8% | –
COc1ccc(-n2c(C)nc3c(cnn3-c3ccc(Cl)cc3)c2=O)cc1 | – | -17.9% | –
c1csc(-c2nc(N3CCOCC3)c3ccccc3n2)c1 | – | -7.83% | –
CCOCC(=O)Nc1ccc(S(=O)(=O)NCCc2ccccc2)cc1 | – | -9.95% | –
O=C(COC(=O)/C=C/c1ccco1)Nc1ccc(F)cc1Cl | 0.116 µM [falling, single point] | – | –
CCN(CC)C(=O)CSc1nc2c(sc(=S)n2CC)c(=O)n1-c1ccccc1 | – | 1.55% | –
CCOC(=O)N1CCN(c2ccc(F)cc2[N+](=O)[O-])CC1 | 5.17 µM [rising, partial curve, poor fit] | 35.2% | 2.91 µM [rising, partial curve]
Cc1ccc(NC(=O)C2CC2C)cc1S(=O)(=O)N1CCOCC1 (stereo not given) | 0.0259 µM [rising, partial curve, poor fit] | – | –
CCC1(C)Cc2ccccc2-c2[nH]c(=S)[nH]c(=O)c21 (stereo not given) | – | -7.3% | –
CCc1ccc(/C=N/n2c(C3CCCCC3)n[nH]c2=S)cc1 | – | -15.3% | –
COc1ccc(S(=O)(=O)N2CCCC(C(=O)NCCCn3ccnc3)C2)cc1OC (stereo not given) | 29.1 µM [falling, partial curve] | -25.7% | –
COc1ccc(OC)c(S(N)(=O)=O)c1 | – | -216% | 29.1 µM [falling, single point]
NS(=O)(=O)c1ccc(NC(=O)COc2ccc(S(=O)(=O)N3CCCC3)cc2)cc1 | 14.6 µM [rising, partial curve] | 15.2% | –
Cc1cc(Cl)ccc1OCC(=O)N1CCN(c2ncccn2)CC1 | – | 22.8% | –
COc1ccc(NC(=O)CC2C(=O)N(Cc3ccccc3)C(=S)N2CCN2CCOCC2)cc1 (stereo not given) | – | -5.3% | –
